According to the supplement of paper PMC8728848:
The other results are listed elsewhere or left out.

Experiments:
Assay in all cases: glycan array binding signal (z-score within array); higher = stronger binding
Conditions in all cases: glycan notation: IUPAC condensed, linker removed
Fuc(a1-2)Gal = target: Fuc(a1-2)Gal
Summary of the method: (§1)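 Arrays were curated from the Consortium for Functional Glycomics database, 3228 in total, and kept only where the protein sequence was available. Binding is expressed as a within-array Z-score. This score was averaged across arrays of the same protein sequence at different concentrations or buffers and across linkers, and negative values can be read as non-binding.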

Fuc(a1-2)Gal(b1-3)GalNAc = target: Fuc(a1-2)Gal(b1-3)GalNAc
Summary of the method: as §1

[1] = target: Fuc(a1-2)Gal(b1-3)GalNAc(b1-3)Gal
Summary of the method: as §1

[2] = target: Fuc(a1-2)Gal(b1-3)GalNAc(b1-3)Gal(a1-4)Gal(b1-4)Glc
Summary of the method: as §1

[3] = target: Fuc(a1-2)Gal(b1-3)GalNAc(b1-3)Gal(b1-4)Glc
Summary of the method: as §1

[4] = target: Fuc(a1-2)Gal(b1-3)GalNAc(b1-4)[Neu5Ac(a2-3)]Gal(b1-4)Glc
Summary of the method: as §1

[5] = target: Fuc(a1-2)Gal(b1-3)[Fuc(a1-4)]GlcNAc
Summary of the method: as §1

Fuc(a1-2)Gal(b1-4)Glc = target: Fuc(a1-2)Gal(b1-4)Glc
Summary of the method: as §1

Fuc(a1-2)Gal(b1-4)Glc6S = target: Fuc(a1-2)Gal(b1-4)Glc6S
Summary of the method: as §1

Fuc(a1-2)Gal(b1-4)GlcNAc = target: Fuc(a1-2)Gal(b1-4)GlcNAc
Summary of the method: as §1

[6] = target: Fuc(a1-2)Gal(b1-4)GlcNAc(b1-3)Gal(b1-4)GlcNAc
Summary of the method: as §1

[7] = target: Fuc(a1-2)Gal(b1-4)GlcNAc(b1-3)Gal(b1-4)GlcNAc(b1-3)Gal(b1-4)GlcNAc
Summary of the method: as §1

[8] = target: Fuc(a1-2)Gal(b1-4)GlcNAc6S
Summary of the method: as §1

[9] = target: Fuc(a1-2)Gal(b1-4)[Fuc(a1-3)]GalNAc(b1-3)Gal(b1-4)[Fuc(a1-3)]GlcNAc
Summary of the method: as §1

[10] = target: Fuc(a1-2)Gal(b1-4)[Fuc(a1-3)]GalNAc(b1-3)Gal(b1-4)[Fuc(a1-3)]GlcNAc(b1-3)Gal(b1-4)[Fuc(a1-3)]GalNAc
Summary of the method: as §1

[11] = target: Fuc(a1-2)Gal(b1-4)[Fuc(a1-3)]GlcNAc
Summary of the method: as §1

Fuc(a1-2)Gal6S(b1-4)Glc = target: Fuc(a1-2)Gal6S(b1-4)Glc
Summary of the method: as §1

[12] = target: Fuc(a1-2)Gal6S(b1-4)Glc6S
Summary of the method: as §1

[13] = target: Fuc(a1-2)Gal6S(b1-4)GlcNAc
Summary of the method: as §1

Fuc(a1-2)GlcNAc = target: Fuc(a1-2)GlcNAc
Summary of the method: as §1

Fuc(a1-2)[Gal(a1-3)]Gal = target: Fuc(a1-2)[Gal(a1-3)]Gal
Summary of the method: as §1

[14] = target: Fuc(a1-2)[Gal(a1-3)]Gal(b1-3)GlcNAc
Summary of the method: as §1

[15] = target: Fuc(a1-2)[Gal(a1-3)]Gal(b1-4)Glc
Summary of the method: as §1

[16] = target: Fuc(a1-2)[Gal(a1-3)]Gal(b1-4)GlcNAc
Summary of the method: as §1

[17] = target: Fuc(a1-2)[Gal(a1-3)]Gal(b1-4)[Fuc(a1-3)]GlcNAc
Summary of the method: as §1

[18] = target: Fuc(a1-2)[Gal(a1-4)]Gal(b1-4)GalNAc
Summary of the method: as §1

[19] = target: Fuc(a1-2)[GalNAc(a1-3)]Gal
Summary of the method: as §1

[20] = target: Fuc(a1-2)[GalNAc(a1-3)]Gal(b1-3)GlcNAc
Summary of the method: as §1

[21] = target: Fuc(a1-2)[GalNAc(a1-3)]Gal(b1-4)Glc
Summary of the method: as §1

[22] = target: Fuc(a1-2)[GalNAc(a1-3)]Gal(b1-4)GlcNAc
Summary of the method: as §1

[23] = target: Fuc(a1-2)[GalNAc(a1-3)]Gal(b1-4)[Fuc(a1-3)]GlcNAc
Summary of the method: as §1

[24] = target: Fuc(a1-2)[GalNAc(a1-4)]Gal(b1-4)GlcNAc
Summary of the method: as §1

Fuc(a1-3)GlcNAc = target: Fuc(a1-3)GlcNAc
Summary of the method: as §1

[25] = target: Fuc(a1-3)[Gal(b1-4)]Glc6S
Summary of the method: as §1

[26] = target: Fuc(a1-3)[Gal(b1-4)]GlcNAc
Summary of the method: as §1

[27] = target: Fuc(a1-3)[Gal(b1-4)]GlcNAc(b1-3)Gal(b1-3)[Fuc(a1-4)]GlcNAc
Summary of the method: as §1

[28] = target: Fuc(a1-3)[Gal(b1-4)]GlcNAc(b1-4)Gal(b1-4)[Fuc(a1-3)]GlcNAc
Summary of the method: as §1

[29] = target: Fuc(a1-3)[Gal(b1-4)]GlcNAc(b1-4)Gal(b1-4)[Fuc(a1-3)]GlcNAc(b1-4)Gal(b1-4)[Fuc(a1-3)]GlcNAc
Summary of the method: as §1

[30] = target: Fuc(a1-3)[Gal(b1-4)]GlcNAc6S
Summary of the method: as §1

[31] = target: Fuc(a1-3)[Gal3S(b1-4)]Glc
Summary of the method: as §1

[32] = target: Fuc(a1-3)[Gal3S(b1-4)]Glc6S
Summary of the method: as §1

[33] = target: Fuc(a1-3)[Gal3S(b1-4)]GlcNAc
Summary of the method: as §1

[34] = target: Fuc(a1-3)[Gal3S(b1-4)]GlcNAc6S
Summary of the method: as §1

[35] = target: Fuc(a1-3)[GalNAc(b1-4)]Gal(b1-4)GlcNAc
Summary of the method: as §1

Fuc(a1-4)GlcNAc = target: Fuc(a1-4)GlcNAc
Summary of the method: as §1

B1: MLTim-4 (Mus musculus), Q6U7R4 (protein)
chain: MSKGLLLLWLVTELWWLYLTPAASEDTIIGFLGQPVTLPCHYLSWSQSRNSMCWGKGSCPNSKCNAELLRTDGTRIISRKSTKYTLLGKVQFGEVSLTISNTNRGDSGVYCCRIEVPGWFNDVKKNVRLELRRAT
glycan array binding signal (z-score) (Fuc(a1-2)Gal): 0.189
glycan array binding signal (z-score) (Fuc(a1-2)Gal(b1-3)GalNAc): 0.158
glycan array binding signal (z-score) [1]: 0.532
glycan array binding signal (z-score) [2]: -0.142
glycan array binding signal (z-score) [3]: 0.06
glycan array binding signal (z-score) [4]: -0.581
glycan array binding signal (z-score) [5]: -0.631
glycan array binding signal (z-score) (Fuc(a1-2)Gal(b1-4)Glc): 0.086
glycan array binding signal (z-score) (Fuc(a1-2)Gal(b1-4)Glc6S): -0.661
glycan array binding signal (z-score) (Fuc(a1-2)Gal(b1-4)GlcNAc): 0.084
glycan array binding signal (z-score) [6]: -0.897
glycan array binding signal (z-score) [7]: 0.189
glycan array binding signal (z-score) [8]: 0.078
glycan array binding signal (z-score) [9]: -0.799
glycan array binding signal (z-score) [10]: 0.195
glycan array binding signal (z-score) [11]: -0.53
glycan array binding signal (z-score) (Fuc(a1-2)Gal6S(b1-4)Glc): 0.961
glycan array binding signal (z-score) [12]: -0.848
glycan array binding signal (z-score) [13]: -1.09
glycan array binding signal (z-score) (Fuc(a1-2)GlcNAc): -0.616
glycan array binding signal (z-score) (Fuc(a1-2)[Gal(a1-3)]Gal): 0.65
glycan array binding signal (z-score) [14]: 0.674
glycan array binding signal (z-score) [15]: -0.387
glycan array binding signal (z-score) [16]: 0.421
glycan array binding signal (z-score) [17]: -0.703
glycan array binding signal (z-score) [18]: 0.25
glycan array binding signal (z-score) [19]: 0.079
glycan array binding signal (z-score) [20]: -0.784
glycan array binding signal (z-score) [21]: -0.23
glycan array binding signal (z-score) [22]: -0.428
glycan array binding signal (z-score) [23]: 0.41
glycan array binding signal (z-score) [24]: -0.177
glycan array binding signal (z-score) (Fuc(a1-3)GlcNAc): -0.545
glycan array binding signal (z-score) [25]: 2.31
glycan array binding signal (z-score) [26]: -0.495
glycan array binding signal (z-score) [27]: -0.305
glycan array binding signal (z-score) [28]: 0.496
glycan array binding signal (z-score) [29]: -1.27
glycan array binding signal (z-score) [30]: 0.768
glycan array binding signal (z-score) [31]: -0.746
glycan array binding signal (z-score) [32]: 0.474
glycan array binding signal (z-score) [33]: -0.632
glycan array binding signal (z-score) [34]: -0.443
glycan array binding signal (z-score) [35]: 0.38
glycan array binding signal (z-score) (Fuc(a1-4)GlcNAc): -0.125
